No constants are given. Whether binding was seen depends on the method and setting. Binding seen in cells or lysates may run through a third protein. Binding can be weak; no strength is given. Where a sequence is shown, tags or fusion partners need not be part of it.
Biological target: eukaryotic initiation factor 4G (eIF4G), endogenous (human (endogenous in Huh-7 and HEK 293T))
Experiment: co-IP

B1: human RNA-binding protein Mex3A with C-terminal HA tag (hMex3A-HA) (protein, UniProt A1L020 1-520)
chain: MPSLVVSGIMERNGGFGELGCFGGSAKDRGLLEDERALQLALDQLCLLGLGEPPAPTAGEDGGGGGGGAPAQPAAPPQPAPPPPPAAPPAAPTAAPAAQTPQPPTAPKGASDAKLCALYKEAELRLKGSSNTTECVPVPTSEHVAEIVGRQGCKIKALRAKTNTYIKTPVRGEEPVFMVTGRREDVATARREIISAAEHFSMIRASRNKSGAAFGVAPALPGQVTIRVRVPYRVVGLVVGPKGATIKRIQQQTNTYIITPSRDRDPVFEITGAPGNVERAREEIETHIAVRTGKILEYNNENDFLAGSPDAAIDSRYSDAWRVHQPGCKPLSTFRQNSLGCIGECGVDSGFEAPRLGEQGGDFGYGGYLFPGYGVGKQDVYYGVAETSPPLWAGQENATPTSVLFSSASSSSSSSAKARAGPPGAHRSPATSAGPELAGLPRRPPGEPLQGFSKLGGGGLRSPGGGRDCMVCFESEVTAALVPCGHNLFCMECAVRICERTDPECPVCHITATQAIRIFS
  binding: binds

Reference: article PMC8454973
